Results on one substance are retold here after PMC6638966, “The demethylase NMAD-1 regulates DNA replication and repair in the Caenorhabditis elegans germline” (PLoS Genetics, 2019).

By UniProt entry, the sequences of proteins in these tests, tags left out.
UniProt Q23670: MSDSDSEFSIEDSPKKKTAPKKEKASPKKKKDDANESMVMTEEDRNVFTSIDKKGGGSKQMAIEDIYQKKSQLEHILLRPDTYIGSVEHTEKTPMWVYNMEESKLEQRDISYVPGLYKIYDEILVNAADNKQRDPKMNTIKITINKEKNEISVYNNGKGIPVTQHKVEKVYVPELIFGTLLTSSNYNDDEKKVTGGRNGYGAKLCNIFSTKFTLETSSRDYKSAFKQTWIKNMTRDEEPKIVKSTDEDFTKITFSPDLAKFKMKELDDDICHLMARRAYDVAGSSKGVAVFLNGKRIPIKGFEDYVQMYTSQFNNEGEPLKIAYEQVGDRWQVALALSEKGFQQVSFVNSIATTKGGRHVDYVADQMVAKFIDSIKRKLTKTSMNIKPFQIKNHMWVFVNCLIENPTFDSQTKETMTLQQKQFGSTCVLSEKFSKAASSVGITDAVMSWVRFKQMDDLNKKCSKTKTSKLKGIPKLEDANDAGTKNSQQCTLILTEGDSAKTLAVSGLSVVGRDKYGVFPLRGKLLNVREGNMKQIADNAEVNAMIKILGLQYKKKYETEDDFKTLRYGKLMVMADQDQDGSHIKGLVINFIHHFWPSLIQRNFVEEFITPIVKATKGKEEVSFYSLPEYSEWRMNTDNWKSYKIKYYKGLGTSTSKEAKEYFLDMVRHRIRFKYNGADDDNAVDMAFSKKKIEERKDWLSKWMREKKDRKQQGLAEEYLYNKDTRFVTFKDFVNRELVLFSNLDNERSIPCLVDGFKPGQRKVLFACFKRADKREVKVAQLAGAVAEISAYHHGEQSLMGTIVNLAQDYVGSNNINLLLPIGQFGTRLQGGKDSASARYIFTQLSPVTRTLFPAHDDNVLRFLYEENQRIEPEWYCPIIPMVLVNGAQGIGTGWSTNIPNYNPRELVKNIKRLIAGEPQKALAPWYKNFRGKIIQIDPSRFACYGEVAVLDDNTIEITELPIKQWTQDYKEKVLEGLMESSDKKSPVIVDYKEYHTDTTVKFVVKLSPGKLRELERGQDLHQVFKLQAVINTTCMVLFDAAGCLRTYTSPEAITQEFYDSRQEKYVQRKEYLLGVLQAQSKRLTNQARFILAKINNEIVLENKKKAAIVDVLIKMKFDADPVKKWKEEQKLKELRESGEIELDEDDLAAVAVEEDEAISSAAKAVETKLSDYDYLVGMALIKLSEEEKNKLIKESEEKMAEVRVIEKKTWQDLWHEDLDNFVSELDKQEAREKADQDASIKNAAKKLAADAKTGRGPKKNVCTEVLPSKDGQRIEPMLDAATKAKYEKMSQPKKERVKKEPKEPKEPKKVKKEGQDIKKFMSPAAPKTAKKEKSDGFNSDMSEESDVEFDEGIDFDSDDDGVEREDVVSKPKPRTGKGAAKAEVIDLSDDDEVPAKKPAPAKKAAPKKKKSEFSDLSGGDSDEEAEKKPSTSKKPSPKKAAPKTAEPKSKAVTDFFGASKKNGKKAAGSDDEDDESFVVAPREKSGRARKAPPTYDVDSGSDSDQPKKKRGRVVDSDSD

The experiment deals with T1, Flag-tagged GFP::NMAD-1 fusion protein (gfp::3xflag::nmad-1 transgene) (C. elegans) (UniProt Q8MNT9).
T1 sequence: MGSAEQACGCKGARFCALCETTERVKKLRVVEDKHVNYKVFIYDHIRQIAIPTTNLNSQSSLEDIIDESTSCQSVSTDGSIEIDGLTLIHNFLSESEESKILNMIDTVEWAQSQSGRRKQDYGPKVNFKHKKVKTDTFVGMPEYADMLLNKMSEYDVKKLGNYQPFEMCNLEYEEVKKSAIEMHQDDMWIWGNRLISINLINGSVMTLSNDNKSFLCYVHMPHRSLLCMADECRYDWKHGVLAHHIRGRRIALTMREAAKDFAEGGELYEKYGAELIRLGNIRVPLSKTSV
Kind of experiment: co-IP; IP from lysate of double transgenic worms in IP-200 buffer (20 mM Tris-HCl pH 7.5, 50 mM KCl), IgG or GFP antibody; blots probed with GFP or Flag antibodies.

No constants are given. Whether binding was seen depends on the method and setting. Binding seen in cells or lysates may run through a third protein. Some binding calls cover weakened binding; strength is not graded here. Tags and fused reporters may be left off the sequences shown.

In the case of “Flag-tagged topoisomerase II (TOP-2), top-2::3xflag(av64) transgene (from UniProt Q23670 1-1520) (enzyme)”, the binding entry is listed as “binds”.
